{"source": "patent US9278121B2", "about": "“Methods of use for an antimicrobial peptide” (priority 2013, dated 2016)", "test_system": "S. aureus", "details": "text summary of Table 1C, three strains", "note": "Some results were stated once for a whole list of compounds, not compound by compound."}
{"smiles": "CCC[C@@H]1C[C@@H](C(=O)N[C@@H]([C@H]2O[C@H](SC)[C@H](O)[C@@H](O)[C@H]2O)[C@H](C)Cl)N(C)C1", "note": "[Clindamycin, clindamycin]", "values": [{"measurement": "MIC against S. aureus", "value": "> 50"}]}
